From publication PMC10978942
Results are given in words; binding and its absence hold for the method and conditions named. Some results given as binding are weak or reduced against the parent protein; the word gives no strength. Sequences can lack the tags named with a protein.

Molecular target: T1, ACE1-BD (ACE1 fused with the GAL4 DNA-binding domain) (Trichoderma reesei) (UniProt Q9P8W3)
T1 sequence: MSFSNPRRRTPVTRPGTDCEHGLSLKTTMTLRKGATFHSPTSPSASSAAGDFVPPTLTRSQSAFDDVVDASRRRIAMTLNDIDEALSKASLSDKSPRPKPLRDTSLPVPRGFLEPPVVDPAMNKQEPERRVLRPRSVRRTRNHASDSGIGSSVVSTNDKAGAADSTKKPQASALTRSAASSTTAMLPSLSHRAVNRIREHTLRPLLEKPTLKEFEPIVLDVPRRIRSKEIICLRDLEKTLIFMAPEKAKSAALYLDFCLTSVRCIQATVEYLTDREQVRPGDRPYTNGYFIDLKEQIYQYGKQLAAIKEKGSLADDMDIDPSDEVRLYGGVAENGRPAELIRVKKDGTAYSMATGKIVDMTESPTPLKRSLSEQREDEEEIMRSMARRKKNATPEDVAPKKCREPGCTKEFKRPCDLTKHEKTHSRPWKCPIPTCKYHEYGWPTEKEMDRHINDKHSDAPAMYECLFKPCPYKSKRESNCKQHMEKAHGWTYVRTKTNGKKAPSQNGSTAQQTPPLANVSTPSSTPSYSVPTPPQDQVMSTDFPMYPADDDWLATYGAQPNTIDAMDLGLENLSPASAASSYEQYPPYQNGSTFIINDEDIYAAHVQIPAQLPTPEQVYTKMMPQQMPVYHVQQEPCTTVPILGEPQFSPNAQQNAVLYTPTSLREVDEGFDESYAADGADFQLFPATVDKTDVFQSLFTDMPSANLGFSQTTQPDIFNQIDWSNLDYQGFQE
Experiment: two-hybrid; Matchmaker Gold Yeast Two-Hybrid System; trsam or xyr1 on the GAL4 activation domain (pGADT7), regulators on the GAL4 DNA-binding domain (pGBKT7); growth without histidine and adenine, 3-amino-1,2,4-triazole, X-alpha-gal

B1: XYR1-AD (protein, UniProt G0RLE8 1-920)
chain: MLSNPLRRYSAYPDISSASFDPNYHGSQSHLHSINVNTFGNSHPYPMQHLAQHAELSSSRMIRASPVQPKQRQGSLIAARKNSTGTAGPIRRRISRACDQCNQLRTKCDGLHPCAHCIEFGLGCEYVRERKKRGKASRKDIAAQQAAAAAAQHSGQVQDGPEDQHRKLSRQQSESSRGSAELAQPAHDPPHGHIEGSVSSFSDNGLSQHAAMGGMDGLEDHHGHVGVDPALGRTQLEASSAMGLGAYGEVHPGYESPGMNGHVMVPPSYGAQTTMAGYSGISYAAQAPSPATYSSDGNFRLTGHIHDYPLANGSSPSWGQSDLRYPVLEPLLPHLGNILPVSLACDLIDLYFSSSSSAQMHPMSPYVLGFVFRKRSFLHPTNPRRCQPALLASMLWVAAQTSEASFLTSLPSARSKVCQKLLELTVGLLQPLIHTGTNSPSPKTSPVVGAAALGVLGVAMPGSLNMDSLAGETGAFGAIGSLDDVITYVHLATVVSASEYKGASLRWWGAAWSLARELKLGRELPPGNPPANQEDGEGLSEDVDEHDLNRNNTRFVTEEEREERRRAWWLVYIVDRHLALCYNRPLFLLDSECSDLYHPMDDIKWQAGKFRSHDAGNSSINIDSSMTDEFGDSPRAARGAHYECRGRSIFGYFLSLMTILGEIVDVHHAKSHPRFGVGFRSARDWDEQVAEITRHLDMYEESLKRFVAKHLPLSSKDKEQHEMHDSGAVTDMQSPLSVRTNASSRMTESEIQASIVVAYSTHVMHVLHILLADKWDPINLLDDDDLWISSEGFVTATSHAVSAAEAISQILEFDPGLEFMPFFYGVYLLQGSFLLLLIADKLQAEASPSVIKACETIVRAHEACVVTLSTEYQRNFSKVMRSALALIRGRVPEDLAEQQQRRRELLALYRWTGNGTGLAL
**Q.** For B1, which binding is on record?
**A.** binds
